Source: patent US8846643B2, “Phosphonates with reduced toxicity for treatment of viral infections” (The Regents of the University of California, priority 2010, dated 2014)
Some results were stated once for a whole list of compounds, not compound by compound.

Test system: Huh 7.5 cells
Assay: cytotoxicity (CC50) in HCV replicon cells / Huh 7.5 liver cells

## CCCCCCCCCCCCCCCCCCOCCOP(=O)(O)CO[C@H](COC)Cn1cnc2c(=O)[nH]c(N)nc21 [Cmpd 34, Octadecyloxyethyl (S)-9-[(3-methoxy-2-phosphonomethoxy)propyl]guanine]
  CC50: > 150 µM
